PubChem BioAssay AID1508597 | Cure First, 2020

Purpose: 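Survival screen with siRNA in ovarian cancer cells derived from patients, with or without rucaparib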 (primary screen)
System: human ovarian carcinoma lines grown from tumours: OCI-P5x (papillary serous) and OCI-C5x (clear cell)
Reagent: siRNA pool against human genes, 1.25 pmol siRNA per well
Duration: 72 h or 96 h, depending on the cell culture
Conditions: rucaparib 20 µM (about IC30) or vehicle, present until read-out
Measurement: 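Luminescent ATP-based viability assay read 72 or 96 h after transfection, depending on culture, given as normalised percent viability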
Direction: viability, normalised: higher = more viable cells remaining
Call rule: 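Active when normalised viability falls below 80 percent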
Calls: active = viability under 80%; inactive = viability 80% or more
Shown is one part, drawn at random, of about 2,100 reagents tested. 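Calls flag viability under 80% in either arm, not effects specific to rucaparib; the reference for percent is not stated.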 No sequences are given here. The record does not give: the 100% reference.

With SMPD1, rucaparib or vehicle Rucaparib, cell line OCI-C5x (clear cell), technical replicate 1 the deposit lists viability, normalised (%) = 55.7; active.
With SMPD1, rucaparib or vehicle Rucaparib, cell line OCI-C5x (clear cell), technical replicate 2, the entry reads viability, normalised (%) = 52.3; active.
For SMPD1, rucaparib or vehicle Rucaparib, cell line OCI-C5x (clear cell), technical replicate 3, the entry reads viability, normalised (%) = 42.7; active.
SMPD1, rucaparib or vehicle Rucaparib, cell line OCI-P5x (serous), technical replicate 1 showed viability, normalised (%) = 42.8; active.
For SMPD1, rucaparib or vehicle Rucaparib, cell line OCI-P5x (serous), technical replicate 2, the entry reads viability, normalised (%) = 54.9; active.
SMPD1, rucaparib or vehicle Rucaparib, cell line OCI-P5x (serous), technical replicate 3 scored viability, normalised (%) = 45.6; active.
For SMPD1, rucaparib or vehicle Vehicle, cell line OCI-C5x (clear cell), technical replicate 1, the entry reads viability, normalised (%) = 54; active.
SMPD1, rucaparib or vehicle Vehicle, cell line OCI-C5x (clear cell), technical replicate 2 scored viability, normalised (%) = 47.9; active.
SMPD1, rucaparib or vehicle Vehicle, cell line OCI-C5x (clear cell), technical replicate 3 scored viability, normalised (%) = 47.6; active.
SMPD1, rucaparib or vehicle Vehicle, cell line OCI-P5x (serous), technical replicate 1 showed viability, normalised (%) = 68.5; active.
SMPD1, rucaparib or vehicle Vehicle, cell line OCI-P5x (serous), technical replicate 2 scored viability, normalised (%) = 72.2; active.
SMPD1, rucaparib or vehicle Vehicle, cell line OCI-P5x (serous), technical replicate 3 gave viability, normalised (%) = 55.3; active.
For SLIT1, rucaparib or vehicle Rucaparib, cell line OCI-C5x (clear cell), technical replicate 1, the values are viability, normalised (%) = 36.9; active.
With SLIT1, rucaparib or vehicle Rucaparib, cell line OCI-C5x (clear cell), technical replicate 2, the values are viability, normalised (%) = 40.4; active.
With SLIT1, rucaparib or vehicle Rucaparib, cell line OCI-C5x (clear cell), technical replicate 3, the values are viability, normalised (%) = 41; active.
For SLIT1, rucaparib or vehicle Rucaparib, cell line OCI-P5x (serous), technical replicate 1 the deposit lists viability, normalised (%) = 49.5; active.
For SLIT1, rucaparib or vehicle Rucaparib, cell line OCI-P5x (serous), technical replicate 2, the entry reads viability, normalised (%) = 62.6; active.
With SLIT1, rucaparib or vehicle Rucaparib, cell line OCI-P5x (serous), technical replicate 3, the entry reads viability, normalised (%) = 76.3; active.
SLIT1, rucaparib or vehicle Vehicle, cell line OCI-C5x (clear cell), technical replicate 1 gave viability, normalised (%) = 58.7; active.
For SLIT1, rucaparib or vehicle Vehicle, cell line OCI-C5x (clear cell), technical replicate 2, the values are viability, normalised (%) = 43.6; active.
SLIT1, rucaparib or vehicle Vehicle, cell line OCI-C5x (clear cell), technical replicate 3 scored viability, normalised (%) = 47; active.
For SLIT1, rucaparib or vehicle Vehicle, cell line OCI-P5x (serous), technical replicate 1, the entry reads viability, normalised (%) = 61.5; active.
SLIT1, rucaparib or vehicle Vehicle, cell line OCI-P5x (serous), technical replicate 2 showed viability, normalised (%) = 66.3; active.
SLIT1, rucaparib or vehicle Vehicle, cell line OCI-P5x (serous), technical replicate 3 showed viability, normalised (%) = 83.2; inactive.

Reformatted: results already given.
gene	rucaparib or vehicle	cell line	technical replicate	viability, normalised (%)	activity call
SMPD1	Rucaparib	OCI-P5x (serous)	1	42.8	active
SMPD1	Rucaparib	OCI-P5x (serous)	2	54.9	active
SMPD1	Rucaparib	OCI-P5x (serous)	3	45.6	active

The list goes on:
With DDX60, rucaparib or vehicle Rucaparib, cell line OCI-C5x (clear cell), technical replicate 1, the entry reads viability, normalised (%) = 57.6; active.
With DDX60, rucaparib or vehicle Rucaparib, cell line OCI-C5x (clear cell), technical replicate 2, the entry reads viability, normalised (%) = 50.7; active.
With DDX60, rucaparib or vehicle Rucaparib, cell line OCI-C5x (clear cell), technical replicate 3 the deposit lists viability, normalised (%) = 43.5; active.
With DDX60, rucaparib or vehicle Rucaparib, cell line OCI-P5x (serous), technical replicate 1, the entry reads viability, normalised (%) = 77.9; active.
With DDX60, rucaparib or vehicle Rucaparib, cell line OCI-P5x (serous), technical replicate 2, the entry reads viability, normalised (%) = 80.9; inactive.
DDX60, rucaparib or vehicle Rucaparib, cell line OCI-P5x (serous), technical replicate 3 showed viability, normalised (%) = 68.2; active.
For DDX60, rucaparib or vehicle Vehicle, cell line OCI-C5x (clear cell), technical replicate 1, the entry reads viability, normalised (%) = 47.5; active.
DDX60, rucaparib or vehicle Vehicle, cell line OCI-C5x (clear cell), technical replicate 2 showed viability, normalised (%) = 48.5; active.
For DDX60, rucaparib or vehicle Vehicle, cell line OCI-C5x (clear cell), technical replicate 3, the values are viability, normalised (%) = 52.5; active.
For DDX60, rucaparib or vehicle Vehicle, cell line OCI-P5x (serous), technical replicate 1, the values are viability, normalised (%) = 71; active.
With DDX60, rucaparib or vehicle Vehicle, cell line OCI-P5x (serous), technical replicate 2 the deposit lists viability, normalised (%) = 72.8; active.
With DDX60, rucaparib or vehicle Vehicle, cell line OCI-P5x (serous), technical replicate 3, the entry reads viability, normalised (%) = 65.8; active.
